A short description of this assay: qHTS Assay for Lipid Storage Modulators in Drosophila S3 Cells.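 On cell number change: cells counted by Cell Tracker Red CMTPX staining in the red channel.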 The conditions noted are these: BODIPY lipid droplet fluorescence, 18-24 h; for cell number change: measured here: cell count max response, cells fed with added oleic acid. The gist of the method:
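Drosophila S3 cells loaded with oleic acid (400 uM, as added) and compounds at several concentrations; lipid droplets imaged by 488-nm laser-scanning cytometry, 500–530 nm intensity and object ratio to cell channel. Percent activity normalized to 20 uM Triacsin C.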

[1] abbreviates: measured here: cell number channel AC50, cells fed with added oleic acid.
Where [2] appears, read: measured here: lipid fluorescence (Fed channel) AC50, cells fed with added oleic acid.

This is one part of the list. The main result of the screen is listed elsewhere. These columns were measured beside it and carry no call. Compounds called inactive in the main read-out are mostly missing here. Words in brackets tell the shape of the fitted curve; partial curves, single points and poor fits give uncertain potencies.

For `O=C(N/N=C/c1c(O)ccc2ccccc12)c1ccc(CO)nc1`, the cell number change was -39.3%. For the same compound, under setting [1], the AC50 – broadly, the midpoint of the concentration-response curve, whichever way the signal moves – is 18.4 µM [falling, partial curve].
In the case of `CCCc1nc2sc3c(SCC(=O)NCc4ccco4)ncnc3c2c2c1CCC2`, the cell number change is -39.5%. The AC50 under setting [1] is 18.4 µM [falling, single point]. Besides, the AC50 under setting [2] was 29.1 µM [falling, single point].
As to `CCCC(=O)Nc1ccc(C(=O)NN2C(=O)c3ccccc3C2=O)cc1`, the cell number change came to 19.1%. For the same compound, the AC50 under setting [2] is 13 µM [rising, partial curve, poor fit].
For the compound `Cc1cnc(=O)[nH]c1SCc1ccccc1F`, the cell number change is -11.3%.
Regarding `CC1(c2ccccc2)NC(=O)N(CCOc2ccccc2)C1=O` (configuration not stated), the cell number change was -9.73%. Besides, the AC50 under setting [2] was 29.1 µM [rising, single point].
As for `CC[C@@]12C(=O)N(c3ccccc3)C(=O)N1[C@H](c1ccc(Br)cc1)[C@@H]1C(=O)N(C(C)(C)C)C(=O)[C@@H]12`, the cell number change was 15.5%. In addition, under setting [2], the AC50 is 0.146 µM [falling, full curve, poor fit].
For `N#Cc1c(-c2ccc(F)cc2)cc(-c2cccnc2)nc1N`, the cell number change was found to be 117%. Further, the AC50 under setting [1] is 29.1 µM [rising, single point].
Regarding `Nn1cnnc1SCC(=O)N1CCc2ccccc2C1`, the cell number change came to 31.8%. For the same compound, the AC50 under setting [1] is 29.1 µM [rising, single point]. The AC50 under setting [2] was 29.1 µM [rising, single point].
Consider `COC(=O)c1cc(Br)c(=O)n(Cc2ccco2)c1`, for which the cell number change was 5.55%. For the same compound, under setting [2], the AC50 was 0.146 µM [rising, full curve, poor fit].
For `Cc1ccc(C)c(S(=O)(=O)N2CCN(C(=O)[C@H](C)N3C(=O)C4CC=CCC4C3=O)CC2)c1` (some centres not stated), the cell number change turned out to be 0.122%. The AC50 under setting [2] is 0.103 µM [rising, full curve, poor fit].
For `COc1ccc(C(=O)N/C(=C\c2cccc([N+](=O)[O-])c2)C(=O)Nc2cccc(C(=O)O)c2)cc1`, the cell number change was determined as 17.8%. The AC50 under setting [2] is 0.00517 µM [falling, full curve, poor fit].
As for `Cc1nn(-c2ccccc2)c(C)c1C(=O)Nc1ccc(N2CCOCC2)cc1`, the cell number change is -48.3%. For the same compound, under setting [1], the AC50 is 29.1 µM [falling, single point]. Besides, the AC50 under setting [2] is 29.1 µM [falling, partial curve, poor fit].
As for `Cn1c(SCC(=O)Nc2sccc2C#N)nnc1-c1ccccc1`, the cell number change turned out to be 8.83%. For the same compound, the AC50 under setting [1] was 0.146 µM [rising, partial curve, poor fit].
For the compound `CC1(C)CC(=O)C=C(Nc2ccc(Br)cc2F)C1`, the cell number change is -5.84%.
As for `COc1ccc(C(=O)N(c2ccccc2)C2C=CS(=O)(=O)C2)cc1` (configuration not stated), the cell number change stood at 3.45%. Moreover, the AC50 under setting [2] was 0.651 µM [falling, single point].
On to `COc1cccc(NC(=O)c2ccncc2)c1`, for which the cell number change is -8.31%. Further, the AC50 under setting [2] is 0.82 µM [falling, full curve, poor fit].
Turning to `COc1ccc(OC)c(NC(=O)CCCN2C(=O)C3C4C=CC(C4)C3C2=O)c1` (configuration not stated), the cell number change is -8.79%. Further, the AC50 under setting [1] was 4.11 µM [falling, single point].
For `NC(N)=N/N=C/c1ccc(OS(=O)(=O)c2ccccc2)cc1`, the cell number change was -2.9%.
Still for that read-out and setting: then `Cc1cccc(NC(=O)C2CCCN(S(=O)(=O)c3cccc4nsnc34)C2)n1` (configuration not stated), with 1.38%; and `CC(=O)c1sc(NC(=O)c2ccc(C)c(C)c2)nc1C`, with 36.8%.
Take `S=C(NCc1ccc(Cl)cc1)NCc1ccco1`: the AC50 under setting [1] was 1.84 µM [rising, partial curve, poor fit].
For `CNc1nc(-c2c(C)[nH]c3ccc(OC)cc23)cs1`, the cell number change turned out to be 17.9%. Under setting [2], the AC50 is 0.411 µM [rising, full curve].
Turning to `O=C(NC(=S)N1CCCCC1c1cccnc1)c1ccc(Br)cc1` (configuration not stated), the cell number change amounted to 17.4%. In addition, the AC50 under setting [2] is 11.6 µM [rising, partial curve].
With `O=C(O)C1C2C=CC(O2)C1C(=O)NCCc1cccc(Cl)c1` (configuration not stated), the AC50 was 3.66 µM [rising, single point] under setting [1] and 16.4 µM [rising, partial curve] under setting [2].
Consider `COc1ccc(CCNC(=O)CSc2nc3ccsc3c(=O)n2CC2CCC(C(=O)O)CC2)cc1OC` (configuration not stated), for which the cell number change is -15.3%. Besides, under setting [1], the AC50 is 4.11 µM [falling, partial curve, poor fit].
Take `CCCCC(=O)Nc1ccc(NC(=O)c2ccccc2OC)cn1`: the cell number change worked out at 17.4%. The AC50 under setting [1] was 0.517 µM [rising, partial curve, poor fit]. In addition, the AC50 under setting [2] is 6.51 µM [rising, single point].
Consider `COc1ccc(NC(=O)c2ccsc2NC(C)=O)cc1`, for which the AC50 under setting [2] was 29.1 µM [falling, single point].
With `COc1cc(C(=O)Nc2cc(S(C)(=O)=O)ccc2Cl)ccc1OCC(=O)N1CCOCC1`, the cell number change is -0.556%. For the same compound, the AC50 under setting [1] is 2.59 µM [falling, single point]. Also, under setting [2], the AC50 is 0.00651 µM [falling, full curve, poor fit].
Regarding `Cc1cc2c(c(=O)o1)C(c1cccs1)C(C#N)=C(N)O2` (configuration not stated), the cell number change was found to be 16.6%. Further, the AC50 under setting [1] is 0.366 µM [falling, single point]. The AC50 under setting [2] is 0.411 µM [falling, partial curve, poor fit].
As for `NC(=O)C1=C[C@@H](c2ccccc2)C[C@@H](OCc2ccc(CO)cc2)O1`, the cell number change stood at 10.3%. Moreover, under setting [2], the AC50 is 1.03 µM [rising, full curve, poor fit].
Turning to `COC(=O)c1ccc(C)c(NC(=O)CN(c2ccccc2)S(=O)(=O)N(C)C)c1`, the cell number change is -0.792%.
Turning to `Cc1ccc(S(=O)(=O)n2nc(-c3ccco3)nc2SCc2ccccc2)cc1`, under setting [2], the AC50 was 1.16 µM [falling, full curve].
Regarding `O=C(c1ccc(CN2CCc3ccccc3C2)cc1)N1CCN(c2ccccc2)CC1`, the cell number change is -7.7%. The AC50 under setting [2] is 6.51 µM [rising, single point].
For `Cc1ccccc1Nc1nc(Cl)c(C=O)s1`, the cell number change is -83.7%. The AC50 under setting [1] is 29.1 µM [falling, single point].
As for `COc1cc(C(=O)NCc2ccncc2)cc(OC)c1OC`, the cell number change amounted to 12.5%. The AC50 under setting [2] is 9.2 µM [rising, single point].
For `COc1ccccc1CNC(=O)c1ccc2ccccc2n1`, the cell number change is -18.1%.
`COc1cc(C(=O)NC2CCCCC2)ccc1OCc1ccc(Cl)cc1Cl`: the AC50 under setting [2] was 20.6 µM [rising, partial curve].
As for `Cc1ccc(S(=O)(=O)NC(Cc2ccccc2)C(=O)O)cc1` (configuration not stated), the cell number change is -6.58%.
For `CCN(CCCNC(=O)C1CCC(=O)N1Cc1ccc(F)cc1)c1cccc(C)c1` (configuration not stated), the cell number change was -11.4%.
`O=C1CN(C(=O)c2ccccc2F)C(c2ccccc2)c2cc(F)ccc2N1` (configuration not stated): the cell number change was found to be 3.6%.

The values above are taken from PubChem BioAssay AID2685 (National Center for Advancing Translational Sciences (NCATS), 2010).
